Literature values in patent US10683315B2, “Prodrug of an HCV NS5B polymerase inhibitor and method of production and application thereof” (priority 2017, dated 2020).
Some entries share one result that the patent states for a list of compounds.

Experiments:
[1] = from Sofia et al. J. Med. Chem. 2010; cited from earlier work
[2] = from Sofia et al. J. Med. Chem. 2010; cited from earlier work; remark: listed apart in the source

SMILES | T1/2 SIF [1] [h] | T1/2 SGF [2] [h]
CC(C)OC(=O)[C@H](C)N[P@](=O)(OC[C@H]1O[C@@H](n2ccc(=O)[nH]c2=O)[C@](C)(F)[C@@H]1O)Oc1ccccc1 [Sovaldi®, Sofosbuvir] | > 20 | 12.7 to 17
C[C@H](NP(=O)(OC[C@H]1O[C@@H](n2ccc(=O)[nH]c2=O)[C@](C)(F)[C@@H]1O)Oc1ccccc1)C(=O)OC1CCCCC1 (stereo partly drawn) [Prodrug A1, cyclohexyl (S)-2-{[(2R,3R,4R,5R)-5-(2,4-dioxo-3,4-dihydro-2H-pyrimidin-1-yl)-4-fluoro-3-hydroxy-4-methyl-tetrahydrofuran-2-ylmethoxy]-phenoxy-phosphorylamino}-propionate] | – | 12.7 to 17
